The text below walks through data of the supplement of paper PMC12889115.

Molecules are shown by their SMILES. The list shows a part of the results. Values are raw readings; no control value is given beside them.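 Primary screen: polymyxin B was added at a level permeabilizing Salmonella outer membranes while sparing inner membranes. DMSO wells, both with and without polymyxin B, established maximum growth. Plate-to-plate variation meant each plate was ranked on its own, and the lowest-OD600 compounds were selected as hits.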

For this experiment, the system named is Salmonella enterica serovar Typhimurium SL1344. Description: bacterial growth OD600 after 18 h with compound and polymyxin B; higher = more bacterial growth (less inhibition). The conditions noted are these: 50 µM, Mueller-Hinton broth.

Regarding `COC(=O)CN(C)C(=O)C1CCC(=O)N(Cc2ccc(Cl)cc2)C1` (stereo not drawn), the “bacterial growth OD600” value (polymyxin B 1 µg/mL) is 0.91. For the compound `COc1cccc(OCc2nc(C(=O)NC3CCOC(C)(C)C3)co2)c1` (stereo not drawn), the “bacterial growth OD600” value (polymyxin B 1 µg/mL) was found to be 1.02. Still for that read-out and setting: for `C[C@@H]1CCC[C@H](C)N1C(=O)c1coc(COc2cccc(C(F)(F)F)c2)n1` the value was 0.793. For the compound `Cc1cccc(-c2cn[nH]c2C2CCCN(Cc3ccc4c(c3)CCO4)C2)c1` (stereo not drawn), the “bacterial growth OD600” value (polymyxin B 0.75 µg/mL) worked out at 0.832. As for `CN(Cc1ccc2nonc2c1)C(=O)c1cc(COc2ccc(F)cc2Cl)on1`, the “bacterial growth OD600” value (polymyxin B 1 µg/mL) is 0.933.

As for `COc1ccc2c(C)nc(N3CCC(C(=O)N(C)C4CCOC4)CC3)nc2c1` (stereo not drawn), for the setting “polymyxin B 0.75 µg/mL”, the “bacterial growth OD600” value worked out at 0.808.

For the compound `CCCNC(=O)[C@H]1C[C@@](C)(C(=O)OC)N(C)[C@H]1c1ccccc1Cl`, under “polymyxin B 0.75 µg/mL”, the “bacterial growth OD600” value turned out to be 0.86. Regarding `Cc1cc(OCc2cc(C(=O)N3CCCCCCC3)no2)cc(C)c1Cl`, the “bacterial growth OD600” value (polymyxin B 1 µg/mL) came out at 0.053. On the same count and under the same terms, the result for `COCCN(Cc1ccc(OC)c(OC)c1)CC1CCCN(C2Cc3ccccc3C2)C1` (stereo not drawn) reads 0.697; that for `COc1ccc(CCN(C)C2CCCN(C(=O)/C=C/c3c[nH]cn3)C2)cc1OC` (stereo not drawn), 0.823. Turning to `O=C(C1CCCN(c2nc(-c3ccccc3)nc3c2CCC3)C1)N1CCCCC1` (stereo not drawn), the “bacterial growth OD600” value (polymyxin B 0.75 µg/mL) amounted to 0.189. As for `CCN(C)c1ccc(C(=O)N2CCC(Cn3cccn3)CC2)cn1`, the “bacterial growth OD600” value (polymyxin B 1 µg/mL) is 1.07. Consider `Cc1ccccc1C1(CC(=O)N2CCCN(c3ncccn3)CC2)CC(=O)N(Cc2ccccc2)C1=O` (stereo not drawn), for which, where the note is “polymyxin B 0.75 µg/mL”, the “bacterial growth OD600” value is 0.688. Turning to `COCCN(C)Cc1cn(-c2ccc(F)cc2)nc1-c1ccccc1Cl`, where the note is “polymyxin B 1 µg/mL”, the “bacterial growth OD600” value was 0.839.

As for `CC(C)Oc1cccc(C(=O)C2CCCN(C(=O)NC(C)(C)C)C2)c1` (stereo not drawn), the “bacterial growth OD600” value (polymyxin B 1 µg/mL) was determined as 0.693.

Regarding `O=C(c1ccc(-n2cccn2)cc1)N1CCCC(Nc2ccc3c(c2)OCCO3)C1` (stereo not drawn), the “bacterial growth OD600” value (polymyxin B 1 µg/mL) was 0.825. With `O=C(c1ccc(F)cc1)N1CCc2onc(-c3ccccc3F)c2C1`, where the note is “polymyxin B 0.75 µg/mL”, the “bacterial growth OD600” value is -0.002. On the same count and under the same terms, the result for `CN(Cc1ccc2nccnc2c1)C(=O)CCN1Cc2ccccc2OC(c2ccccc2)C1` (stereo not drawn) reads 0.985. Turning to `COc1ccc(-c2noc(CN3CCOc4ccc(Cl)cc4C3)n2)c(OC)c1OC`, the “bacterial growth OD600” value (polymyxin B 1 µg/mL) is 0.882.

Turning to `COc1ccc(F)c(CN2CCCC(O)(CN3CCC4(CC3)OCCO4)C2=O)c1` (stereo not drawn), the “bacterial growth OD600” value (polymyxin B 1 µg/mL) stood at 0.927. Regarding `COCc1ccc(C(=O)N2CCCC(CCc3ccc(F)c(F)c3)C2)o1` (stereo not drawn), the “bacterial growth OD600” value (polymyxin B 0.75 µg/mL) is 0.001.

With `COc1cccc(-c2ccc(NC(=O)C3CCCN(C(C)C)C3)cc2)c1` (stereo not drawn), for the setting “polymyxin B 1 µg/mL”, the “bacterial growth OD600” value is 0.792. `COc1ncccc1C(=O)N1CCc2[nH]nc(-c3cccc(F)c3)c2C1`: where the note is “polymyxin B 0.75 µg/mL”, the “bacterial growth OD600” value is 0.761. As for `C=CCOc1cccc(C(=O)N2CCCC(CO)(Cc3ccc(F)cc3F)C2)c1` (stereo not drawn), the “bacterial growth OD600” value (polymyxin B 1 µg/mL) turned out to be 0.012.

For the compound `Fc1ccc(C2CCN(Cc3ccc4nccnc4c3)c3ccccc3S2)cc1F` (stereo not drawn), for the setting “polymyxin B 0.75 µg/mL”, the “bacterial growth OD600” value came out at 0.032. With `CNc1ccc(C(=O)NCCC2CCCCN2C)cn1` (stereo not drawn), the “bacterial growth OD600” value (polymyxin B 1 µg/mL) worked out at 0.937.

As to `COc1ccc(F)c(CN2CCCC3(CCN(CCC(C)C)C3)C2=O)c1` (stereo not drawn), the “bacterial growth OD600” value (polymyxin B 1 µg/mL) turned out to be 0.578.

Turning to `CCN(Cc1ccccc1)C(=O)c1oc2ccc(C)cc2c1C`, the “bacterial growth OD600” value (polymyxin B 1 µg/mL) came out at 0.21. `CCOC(=O)C1(CCCc2ccccc2)CCN(Cc2cccnc2)CC1`: under “polymyxin B 0.75 µg/mL”, the “bacterial growth OD600” value stood at 0.581. Still for that read-out and setting: the result for `COCC(=O)Nc1cc(C(=O)NC(c2ccccn2)C(F)(F)F)c2c(c1)nc(C1CCC1)n2C` (stereo not drawn) reads 0.846. Take `O=C(CCc1[nH]nc2c1CCCC2)N1CCCC(Nc2ccc3c(c2)OCCO3)C1` (stereo not drawn): for the setting “polymyxin B 1 µg/mL”, the “bacterial growth OD600” value was 0.791.

On to `CCCc1cc(C(=O)NCC2Cc3cc(-c4cccnc4)cc(F)c3O2)n(C)n1` (stereo not drawn), for which the “bacterial growth OD600” value (polymyxin B 0.75 µg/mL) is 0.816. On to `COc1ccccc1C(=O)N[C@@H]1c2ccccc2C2(CCN(C(=O)CC3CCCC3)CC2)[C@H]1OC`, for which the “bacterial growth OD600” value (polymyxin B 0.75 µg/mL) amounted to 0.028.
